The assay deals with Glycogen synthase kinase-3β (rat (endogenous in H9c2)) (UniProt P18266). The experiment in a line: co-IP; H9c2 lysate supernatant incubated overnight at 4°C with anti-GSK-3β antibody, then protein A agarose beads 2 h at room temperature; washed six times with 1x IP buffer and once with 0.1x IP buffer; blot with anti-Drp1; cells after hypoxia/reoxygenation (H/R), with or without LS-102 pre-treatment.

By UniProt entry, the sequences of proteins in these tests, tags left out.
UniProt P18266: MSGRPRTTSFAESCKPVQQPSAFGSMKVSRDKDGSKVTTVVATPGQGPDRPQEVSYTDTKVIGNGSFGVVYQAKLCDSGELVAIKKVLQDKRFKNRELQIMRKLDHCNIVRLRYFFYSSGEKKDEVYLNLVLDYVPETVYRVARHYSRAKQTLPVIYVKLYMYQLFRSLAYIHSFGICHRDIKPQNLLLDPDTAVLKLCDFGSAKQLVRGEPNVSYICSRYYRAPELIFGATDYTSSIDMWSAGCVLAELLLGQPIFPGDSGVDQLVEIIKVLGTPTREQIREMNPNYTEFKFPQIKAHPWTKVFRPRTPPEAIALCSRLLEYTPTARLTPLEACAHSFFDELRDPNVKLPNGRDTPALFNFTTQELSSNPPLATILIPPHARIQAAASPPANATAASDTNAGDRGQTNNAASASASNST
UniProt O35303: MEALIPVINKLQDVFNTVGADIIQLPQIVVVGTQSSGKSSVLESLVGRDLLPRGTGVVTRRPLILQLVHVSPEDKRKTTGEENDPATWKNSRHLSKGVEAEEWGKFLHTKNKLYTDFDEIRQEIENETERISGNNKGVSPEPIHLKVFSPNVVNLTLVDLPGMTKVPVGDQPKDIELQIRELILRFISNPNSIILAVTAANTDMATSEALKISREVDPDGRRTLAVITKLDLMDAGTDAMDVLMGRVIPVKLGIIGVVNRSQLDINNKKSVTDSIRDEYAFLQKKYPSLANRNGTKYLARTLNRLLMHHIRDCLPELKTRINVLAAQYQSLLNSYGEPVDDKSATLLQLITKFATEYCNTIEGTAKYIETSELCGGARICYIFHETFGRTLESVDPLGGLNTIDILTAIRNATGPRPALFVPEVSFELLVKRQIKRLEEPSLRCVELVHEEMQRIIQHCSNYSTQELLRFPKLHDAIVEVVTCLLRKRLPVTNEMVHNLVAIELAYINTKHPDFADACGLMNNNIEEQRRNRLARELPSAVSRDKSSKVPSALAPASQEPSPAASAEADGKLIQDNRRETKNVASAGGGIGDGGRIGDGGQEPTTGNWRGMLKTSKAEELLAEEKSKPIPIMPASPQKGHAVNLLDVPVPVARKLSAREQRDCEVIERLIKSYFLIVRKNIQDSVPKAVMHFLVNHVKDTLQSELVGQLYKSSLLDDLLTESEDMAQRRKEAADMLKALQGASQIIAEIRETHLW

These are yes or no findings as the source states them, for the method shown. In cells and extracts the contact can be indirect. Some entries that bind do so weakly or less than the wild type.

Turning to “Dynamin-related protein1 (from UniProt O35303 1-755)”, the binding result was “binds”.

These data come from paper PMC7528720.
